# Paper PMC5268481
# By UniProt entry, the sequences of proteins in these tests, tags left out. Where a name states a change or a piece, a line headed by the entry shows the natural chain unless it says otherwise.
# UniProt Q9DC28: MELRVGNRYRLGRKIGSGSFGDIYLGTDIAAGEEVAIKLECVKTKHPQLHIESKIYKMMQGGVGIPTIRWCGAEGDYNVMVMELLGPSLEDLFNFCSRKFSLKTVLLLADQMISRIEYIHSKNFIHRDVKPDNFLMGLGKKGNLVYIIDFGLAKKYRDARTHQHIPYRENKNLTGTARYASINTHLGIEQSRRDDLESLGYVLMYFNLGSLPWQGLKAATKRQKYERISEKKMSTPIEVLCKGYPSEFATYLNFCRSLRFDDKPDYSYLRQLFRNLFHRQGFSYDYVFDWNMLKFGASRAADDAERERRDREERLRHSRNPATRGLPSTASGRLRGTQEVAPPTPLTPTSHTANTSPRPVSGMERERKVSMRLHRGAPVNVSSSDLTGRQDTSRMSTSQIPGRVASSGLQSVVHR
# These are yes or no findings as the source states them, for the method shown. Binding seen in cells or lysates may run through a third protein. Some entries that bind do so weakly or less than the wild type. Tags and fused reporters may be left off the sequences shown.
# Biological target: T1, FLAG-Chk1 (UniProt O14757)
# T1 sequence: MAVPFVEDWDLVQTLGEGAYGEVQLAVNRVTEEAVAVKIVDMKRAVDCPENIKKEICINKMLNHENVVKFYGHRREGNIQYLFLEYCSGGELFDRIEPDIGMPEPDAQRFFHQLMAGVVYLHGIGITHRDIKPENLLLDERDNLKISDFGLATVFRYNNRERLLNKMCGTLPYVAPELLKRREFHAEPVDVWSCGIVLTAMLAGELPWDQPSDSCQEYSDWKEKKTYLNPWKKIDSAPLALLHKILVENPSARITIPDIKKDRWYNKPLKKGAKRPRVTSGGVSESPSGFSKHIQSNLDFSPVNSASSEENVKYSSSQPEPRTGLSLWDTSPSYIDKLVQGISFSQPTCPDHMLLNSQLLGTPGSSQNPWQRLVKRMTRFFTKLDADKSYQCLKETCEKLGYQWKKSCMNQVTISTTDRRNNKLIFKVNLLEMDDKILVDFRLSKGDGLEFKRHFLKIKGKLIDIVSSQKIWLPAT
# Experiment: co-IP; HEK293 cells transfected with FLAG-Chk1 and Myc-CK1δ derivatives, lysed 48 h later; 1 mg pre-cleared lysate with FLAG antibody on protein A/G-agarose overnight at 4°C in IP buffer (20 mM Tris-HCl pH 8.0, 10 mM EDTA, 1 mM EGTA, 150 mM NaCl, 0.2% Triton-X, 0.2% Nonidet P-40); western blotting
row,binding,Substance
1,binds,6xMyc-mouse CK1δ kinase-dead (K38A) derivative (from UniProt Q9DC28 1-415) (enzyme)
2,binds,"6xMyc-mouse CK1δ wild type (WT), full length (from UniProt Q9DC28 1-415) (enzyme)"
3,binds,Myc-CK1δ KD (kinase domain only) (from UniProt Q9DC28 9-277) (domain or fragment)
